From PMC11303431
Results are given in words; binding and its absence hold for the method and conditions named. In cells and extracts the contact can be indirect. Some results given as binding are weak or reduced against the parent protein; the word gives no strength.

Sequences of proteins named here, by UniProt entry; tags and fusion partners are left off.
UniProt Q01082: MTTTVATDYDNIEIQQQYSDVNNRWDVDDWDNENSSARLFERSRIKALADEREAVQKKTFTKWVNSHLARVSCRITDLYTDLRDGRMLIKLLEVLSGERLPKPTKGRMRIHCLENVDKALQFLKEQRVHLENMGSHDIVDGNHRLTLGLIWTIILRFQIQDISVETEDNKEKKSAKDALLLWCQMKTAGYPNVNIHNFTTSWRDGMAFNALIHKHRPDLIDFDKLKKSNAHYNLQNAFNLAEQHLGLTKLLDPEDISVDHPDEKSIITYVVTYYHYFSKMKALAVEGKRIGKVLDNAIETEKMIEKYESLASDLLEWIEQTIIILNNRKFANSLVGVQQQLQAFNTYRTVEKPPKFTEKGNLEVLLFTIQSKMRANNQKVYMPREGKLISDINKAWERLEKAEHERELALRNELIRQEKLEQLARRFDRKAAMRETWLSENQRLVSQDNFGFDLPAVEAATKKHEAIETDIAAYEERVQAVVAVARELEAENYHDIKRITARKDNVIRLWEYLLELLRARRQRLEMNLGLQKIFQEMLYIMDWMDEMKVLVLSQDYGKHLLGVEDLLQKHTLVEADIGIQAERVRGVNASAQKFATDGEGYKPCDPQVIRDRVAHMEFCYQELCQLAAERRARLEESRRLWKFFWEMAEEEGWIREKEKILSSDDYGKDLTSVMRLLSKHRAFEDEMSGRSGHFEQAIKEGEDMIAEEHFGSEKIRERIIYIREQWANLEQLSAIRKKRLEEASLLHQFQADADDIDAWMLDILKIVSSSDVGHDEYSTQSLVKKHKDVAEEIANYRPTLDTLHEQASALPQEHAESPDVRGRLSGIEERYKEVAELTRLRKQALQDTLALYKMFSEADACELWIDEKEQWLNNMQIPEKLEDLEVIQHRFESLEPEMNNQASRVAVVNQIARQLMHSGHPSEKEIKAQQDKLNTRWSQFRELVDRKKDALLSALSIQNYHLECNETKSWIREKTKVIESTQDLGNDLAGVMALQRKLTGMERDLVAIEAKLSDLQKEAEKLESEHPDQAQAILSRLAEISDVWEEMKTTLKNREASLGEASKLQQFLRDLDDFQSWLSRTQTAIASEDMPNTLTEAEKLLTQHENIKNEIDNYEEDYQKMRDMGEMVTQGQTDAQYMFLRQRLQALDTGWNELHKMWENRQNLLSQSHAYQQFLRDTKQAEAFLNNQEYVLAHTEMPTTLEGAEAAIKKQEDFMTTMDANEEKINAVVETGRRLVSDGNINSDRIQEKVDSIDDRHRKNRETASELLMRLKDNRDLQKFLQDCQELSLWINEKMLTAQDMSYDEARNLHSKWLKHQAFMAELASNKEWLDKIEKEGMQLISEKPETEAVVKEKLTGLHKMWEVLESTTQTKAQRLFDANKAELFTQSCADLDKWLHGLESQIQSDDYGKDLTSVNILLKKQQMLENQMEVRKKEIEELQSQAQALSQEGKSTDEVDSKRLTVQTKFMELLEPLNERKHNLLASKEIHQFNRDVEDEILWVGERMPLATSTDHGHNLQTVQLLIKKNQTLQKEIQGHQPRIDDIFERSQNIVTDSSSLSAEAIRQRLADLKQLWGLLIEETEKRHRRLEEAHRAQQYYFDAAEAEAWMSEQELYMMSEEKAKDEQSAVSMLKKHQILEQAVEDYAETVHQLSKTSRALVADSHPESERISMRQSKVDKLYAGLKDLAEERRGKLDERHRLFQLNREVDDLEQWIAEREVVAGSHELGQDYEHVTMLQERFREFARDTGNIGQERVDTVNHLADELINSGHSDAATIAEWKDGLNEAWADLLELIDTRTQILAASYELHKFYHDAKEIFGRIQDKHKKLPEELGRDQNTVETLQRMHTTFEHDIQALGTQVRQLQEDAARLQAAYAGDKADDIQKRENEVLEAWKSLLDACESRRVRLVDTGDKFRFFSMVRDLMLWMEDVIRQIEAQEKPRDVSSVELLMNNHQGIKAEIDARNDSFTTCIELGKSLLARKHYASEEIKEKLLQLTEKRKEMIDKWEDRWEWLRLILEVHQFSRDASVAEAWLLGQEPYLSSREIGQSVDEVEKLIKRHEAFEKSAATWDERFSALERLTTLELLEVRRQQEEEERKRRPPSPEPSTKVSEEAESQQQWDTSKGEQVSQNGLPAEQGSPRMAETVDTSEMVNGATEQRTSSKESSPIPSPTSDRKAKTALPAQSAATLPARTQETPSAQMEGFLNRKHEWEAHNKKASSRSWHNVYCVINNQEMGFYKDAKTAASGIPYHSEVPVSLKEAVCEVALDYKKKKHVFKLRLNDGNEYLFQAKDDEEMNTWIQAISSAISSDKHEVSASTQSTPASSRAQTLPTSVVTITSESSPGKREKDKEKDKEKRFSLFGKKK
UniProt Q07157: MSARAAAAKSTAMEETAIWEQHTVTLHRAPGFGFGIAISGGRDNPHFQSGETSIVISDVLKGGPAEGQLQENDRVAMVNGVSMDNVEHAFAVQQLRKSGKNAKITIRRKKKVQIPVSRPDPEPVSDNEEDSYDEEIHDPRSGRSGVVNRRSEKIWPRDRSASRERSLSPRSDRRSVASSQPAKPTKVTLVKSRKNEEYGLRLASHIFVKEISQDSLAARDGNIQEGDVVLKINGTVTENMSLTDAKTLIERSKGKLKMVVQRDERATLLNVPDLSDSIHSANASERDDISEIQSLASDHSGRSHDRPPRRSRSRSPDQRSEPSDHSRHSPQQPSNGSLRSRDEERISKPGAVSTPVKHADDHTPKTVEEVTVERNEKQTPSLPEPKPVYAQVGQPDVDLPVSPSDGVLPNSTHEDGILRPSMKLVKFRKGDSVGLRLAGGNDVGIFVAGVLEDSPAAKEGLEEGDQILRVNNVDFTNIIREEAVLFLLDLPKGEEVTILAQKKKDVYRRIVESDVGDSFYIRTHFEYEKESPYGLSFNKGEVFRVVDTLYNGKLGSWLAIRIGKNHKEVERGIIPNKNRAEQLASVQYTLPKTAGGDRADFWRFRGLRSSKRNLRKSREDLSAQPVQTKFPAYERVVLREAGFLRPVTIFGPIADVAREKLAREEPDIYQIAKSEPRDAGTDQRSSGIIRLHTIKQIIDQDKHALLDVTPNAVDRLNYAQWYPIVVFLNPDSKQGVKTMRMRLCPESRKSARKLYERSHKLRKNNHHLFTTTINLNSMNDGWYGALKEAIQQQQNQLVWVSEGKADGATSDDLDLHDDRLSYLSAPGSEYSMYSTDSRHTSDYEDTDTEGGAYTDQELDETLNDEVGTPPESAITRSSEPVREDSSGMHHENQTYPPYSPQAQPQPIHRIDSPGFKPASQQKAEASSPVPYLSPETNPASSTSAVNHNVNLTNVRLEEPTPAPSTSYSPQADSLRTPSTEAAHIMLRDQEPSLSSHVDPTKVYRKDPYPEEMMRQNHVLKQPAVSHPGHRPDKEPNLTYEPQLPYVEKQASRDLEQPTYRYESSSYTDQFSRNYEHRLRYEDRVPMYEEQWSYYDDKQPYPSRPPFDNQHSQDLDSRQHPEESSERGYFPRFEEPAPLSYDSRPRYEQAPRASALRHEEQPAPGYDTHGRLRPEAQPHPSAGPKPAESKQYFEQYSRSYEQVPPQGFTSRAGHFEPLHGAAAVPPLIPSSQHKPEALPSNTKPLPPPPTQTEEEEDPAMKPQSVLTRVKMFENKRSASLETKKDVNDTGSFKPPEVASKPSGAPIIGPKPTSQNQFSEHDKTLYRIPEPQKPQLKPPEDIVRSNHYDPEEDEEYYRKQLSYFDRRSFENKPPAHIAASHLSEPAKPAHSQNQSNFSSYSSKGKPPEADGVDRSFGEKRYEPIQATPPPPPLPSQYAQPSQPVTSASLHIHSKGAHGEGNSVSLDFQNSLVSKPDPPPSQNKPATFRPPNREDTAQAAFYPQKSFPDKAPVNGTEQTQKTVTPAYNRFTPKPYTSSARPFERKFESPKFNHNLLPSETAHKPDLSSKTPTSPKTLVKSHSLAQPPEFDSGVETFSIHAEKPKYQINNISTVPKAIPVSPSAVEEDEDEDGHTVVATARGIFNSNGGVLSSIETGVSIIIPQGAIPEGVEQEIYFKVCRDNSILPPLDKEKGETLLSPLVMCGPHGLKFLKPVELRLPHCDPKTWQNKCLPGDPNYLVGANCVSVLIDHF

Tests used:
[1] = target: T1, VE-cadherin (human (endogenous in HUVEC and HMEC-1)) (UniProt P33151); experiment: co-IP; reverse: immunoprecipitation of endogenous VE-cadherin, immunoblotting for SPTBN1 (Supplemental Fig. 2A)
T1 sequence: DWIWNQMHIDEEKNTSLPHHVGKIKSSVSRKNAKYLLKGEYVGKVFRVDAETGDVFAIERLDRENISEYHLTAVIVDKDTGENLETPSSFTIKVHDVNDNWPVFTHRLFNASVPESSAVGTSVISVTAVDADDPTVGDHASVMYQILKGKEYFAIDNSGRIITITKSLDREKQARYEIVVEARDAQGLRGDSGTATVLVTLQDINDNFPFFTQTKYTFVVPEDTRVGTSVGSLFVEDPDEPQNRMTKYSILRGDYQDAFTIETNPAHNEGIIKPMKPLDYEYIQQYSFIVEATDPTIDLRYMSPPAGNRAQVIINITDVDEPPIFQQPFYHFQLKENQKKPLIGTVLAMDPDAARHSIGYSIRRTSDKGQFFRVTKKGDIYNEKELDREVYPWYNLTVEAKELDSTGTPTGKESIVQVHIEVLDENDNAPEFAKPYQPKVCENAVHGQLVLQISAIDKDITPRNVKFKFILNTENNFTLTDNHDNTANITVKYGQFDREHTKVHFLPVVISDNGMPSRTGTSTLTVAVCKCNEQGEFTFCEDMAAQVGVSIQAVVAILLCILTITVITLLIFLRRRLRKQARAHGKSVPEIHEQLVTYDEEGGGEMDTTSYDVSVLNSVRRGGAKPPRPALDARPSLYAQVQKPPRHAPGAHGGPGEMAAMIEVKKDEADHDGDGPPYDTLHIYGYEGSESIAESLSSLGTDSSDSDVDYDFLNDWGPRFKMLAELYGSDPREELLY

[2] = target: Spectrin Beta Non-Erythrocytic 1 (human (endogenous in HUVEC and HMEC-1)) (UniProt Q01082); experiment: co-IP; immunoprecipitation of endogenous SPTBN1 from HUVEC and HMEC-1 lysates, immunoblotting for VE-cadherin and ZO-1

Question: “Spectrin Beta Non-Erythrocytic 1 (from UniProt Q01082 1-2364)” was tested. Which binding [1] did it give?
Answer: binds

Question: Which binding [2] does the source give for “tight junction protein ZO-1 (from UniProt Q07157 1-1748)” here?
Answer: no binding

B1: VE-cadherin (protein, UniProt P33151 48-784)
chain: DWIWNQMHIDEEKNTSLPHHVGKIKSSVSRKNAKYLLKGEYVGKVFRVDAETGDVFAIERLDRENISEYHLTAVIVDKDTGENLETPSSFTIKVHDVNDNWPVFTHRLFNASVPESSAVGTSVISVTAVDADDPTVGDHASVMYQILKGKEYFAIDNSGRIITITKSLDREKQARYEIVVEARDAQGLRGDSGTATVLVTLQDINDNFPFFTQTKYTFVVPEDTRVGTSVGSLFVEDPDEPQNRMTKYSILRGDYQDAFTIETNPAHNEGIIKPMKPLDYEYIQQYSFIVEATDPTIDLRYMSPPAGNRAQVIINITDVDEPPIFQQPFYHFQLKENQKKPLIGTVLAMDPDAARHSIGYSIRRTSDKGQFFRVTKKGDIYNEKELDREVYPWYNLTVEAKELDSTGTPTGKESIVQVHIEVLDENDNAPEFAKPYQPKVCENAVHGQLVLQISAIDKDITPRNVKFKFILNTENNFTLTDNHDNTANITVKYGQFDREHTKVHFLPVVISDNGMPSRTGTSTLTVAVCKCNEQGEFTFCEDMAAQVGVSIQAVVAILLCILTITVITLLIFLRRRLRKQARAHGKSVPEIHEQLVTYDEEGGGEMDTTSYDVSVLNSVRRGGAKPPRPALDARPSLYAQVQKPPRHAPGAHGGPGEMAAMIEVKKDEADHDGDGPPYDTLHIYGYEGSESIAESLSSLGTDSSDSDVDYDFLNDWGPRFKMLAELYGSDPREELLY
Question: With B1 as the molecule, how does the binding [2] read?
Answer: binds
